Results taken from patent US20100143436A1.
These are yes or no findings as the source states them, for the method shown. Some binding calls cover weakened binding; strength is not graded here.

The chains behind the UniProt entries cited, without tags or fusion partners. Where a name states a change or a piece, a line headed by the entry shows the natural chain unless it says otherwise.
UniProt P83949: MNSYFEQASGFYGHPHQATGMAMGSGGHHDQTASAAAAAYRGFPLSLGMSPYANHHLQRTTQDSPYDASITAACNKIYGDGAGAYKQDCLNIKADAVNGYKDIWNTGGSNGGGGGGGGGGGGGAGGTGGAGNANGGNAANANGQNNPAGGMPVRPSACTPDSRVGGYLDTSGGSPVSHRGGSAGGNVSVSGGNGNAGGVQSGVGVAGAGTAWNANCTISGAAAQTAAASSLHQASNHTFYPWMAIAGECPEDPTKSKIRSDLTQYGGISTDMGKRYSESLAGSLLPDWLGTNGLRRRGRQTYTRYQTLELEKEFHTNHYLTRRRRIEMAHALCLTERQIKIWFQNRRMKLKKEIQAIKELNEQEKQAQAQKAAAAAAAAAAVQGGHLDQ

Molecular target: EGFP-Ubx chimera (Drosophila melanogaster) (UniProt P83949)
Assay: co-assembly of two chimeras in one film and fiber, fluorescence imaging (FIGS. 10E and 10F)

Question: Which binding does the source give for “mCherry-Ubx chimera (from UniProt P83949 1-389)” here?
Answer: Its binding is “binds”.
